Amino acid sequences for entries named in this document (tags omitted). A change or cut given only in a name is not applied to a line headed by its entry. Chains listed by the source or under a name are the forms on record and can include a tag or linker. Residues count along the entry.
UniProt Q92560: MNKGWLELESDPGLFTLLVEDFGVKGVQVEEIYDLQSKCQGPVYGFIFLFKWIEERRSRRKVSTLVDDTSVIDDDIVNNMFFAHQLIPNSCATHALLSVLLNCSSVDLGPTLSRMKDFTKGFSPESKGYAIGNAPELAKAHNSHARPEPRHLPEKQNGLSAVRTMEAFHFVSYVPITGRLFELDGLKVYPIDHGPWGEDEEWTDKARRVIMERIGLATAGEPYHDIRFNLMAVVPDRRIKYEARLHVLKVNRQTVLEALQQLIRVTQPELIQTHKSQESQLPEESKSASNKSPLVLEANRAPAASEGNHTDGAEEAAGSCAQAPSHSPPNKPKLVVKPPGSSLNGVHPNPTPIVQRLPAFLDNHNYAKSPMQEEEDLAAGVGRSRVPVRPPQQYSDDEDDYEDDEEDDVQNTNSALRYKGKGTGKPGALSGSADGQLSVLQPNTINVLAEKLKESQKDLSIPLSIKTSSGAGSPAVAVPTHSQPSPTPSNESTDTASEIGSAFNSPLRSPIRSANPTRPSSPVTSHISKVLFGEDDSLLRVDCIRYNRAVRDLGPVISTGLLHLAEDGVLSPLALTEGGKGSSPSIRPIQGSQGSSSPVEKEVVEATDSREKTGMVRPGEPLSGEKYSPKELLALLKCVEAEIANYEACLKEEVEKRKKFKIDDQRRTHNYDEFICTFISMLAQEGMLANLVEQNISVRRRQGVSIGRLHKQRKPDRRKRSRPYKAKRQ
GFP-BAP1 2–670: residues 2-670 of Q92560
GFP-BAP1 Δ671–710 (Q92560, form named): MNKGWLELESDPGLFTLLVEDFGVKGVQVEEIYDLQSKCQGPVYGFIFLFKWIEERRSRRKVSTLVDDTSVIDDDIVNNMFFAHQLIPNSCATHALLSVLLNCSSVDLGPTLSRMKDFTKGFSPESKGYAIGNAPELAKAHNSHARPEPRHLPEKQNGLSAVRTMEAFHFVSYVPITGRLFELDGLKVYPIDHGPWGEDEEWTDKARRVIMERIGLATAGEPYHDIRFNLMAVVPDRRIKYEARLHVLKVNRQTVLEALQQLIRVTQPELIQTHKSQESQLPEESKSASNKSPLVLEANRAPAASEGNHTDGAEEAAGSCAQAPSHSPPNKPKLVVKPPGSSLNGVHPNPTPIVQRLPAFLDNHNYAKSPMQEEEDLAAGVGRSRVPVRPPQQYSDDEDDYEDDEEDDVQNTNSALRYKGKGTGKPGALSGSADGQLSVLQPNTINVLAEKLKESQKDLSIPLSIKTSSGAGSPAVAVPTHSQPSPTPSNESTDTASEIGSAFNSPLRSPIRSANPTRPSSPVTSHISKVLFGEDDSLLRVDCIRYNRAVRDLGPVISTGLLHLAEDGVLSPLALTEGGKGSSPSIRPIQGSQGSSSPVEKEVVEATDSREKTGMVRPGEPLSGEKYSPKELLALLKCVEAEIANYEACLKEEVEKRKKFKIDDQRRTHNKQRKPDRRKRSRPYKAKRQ
UniProt Q8IWZ3: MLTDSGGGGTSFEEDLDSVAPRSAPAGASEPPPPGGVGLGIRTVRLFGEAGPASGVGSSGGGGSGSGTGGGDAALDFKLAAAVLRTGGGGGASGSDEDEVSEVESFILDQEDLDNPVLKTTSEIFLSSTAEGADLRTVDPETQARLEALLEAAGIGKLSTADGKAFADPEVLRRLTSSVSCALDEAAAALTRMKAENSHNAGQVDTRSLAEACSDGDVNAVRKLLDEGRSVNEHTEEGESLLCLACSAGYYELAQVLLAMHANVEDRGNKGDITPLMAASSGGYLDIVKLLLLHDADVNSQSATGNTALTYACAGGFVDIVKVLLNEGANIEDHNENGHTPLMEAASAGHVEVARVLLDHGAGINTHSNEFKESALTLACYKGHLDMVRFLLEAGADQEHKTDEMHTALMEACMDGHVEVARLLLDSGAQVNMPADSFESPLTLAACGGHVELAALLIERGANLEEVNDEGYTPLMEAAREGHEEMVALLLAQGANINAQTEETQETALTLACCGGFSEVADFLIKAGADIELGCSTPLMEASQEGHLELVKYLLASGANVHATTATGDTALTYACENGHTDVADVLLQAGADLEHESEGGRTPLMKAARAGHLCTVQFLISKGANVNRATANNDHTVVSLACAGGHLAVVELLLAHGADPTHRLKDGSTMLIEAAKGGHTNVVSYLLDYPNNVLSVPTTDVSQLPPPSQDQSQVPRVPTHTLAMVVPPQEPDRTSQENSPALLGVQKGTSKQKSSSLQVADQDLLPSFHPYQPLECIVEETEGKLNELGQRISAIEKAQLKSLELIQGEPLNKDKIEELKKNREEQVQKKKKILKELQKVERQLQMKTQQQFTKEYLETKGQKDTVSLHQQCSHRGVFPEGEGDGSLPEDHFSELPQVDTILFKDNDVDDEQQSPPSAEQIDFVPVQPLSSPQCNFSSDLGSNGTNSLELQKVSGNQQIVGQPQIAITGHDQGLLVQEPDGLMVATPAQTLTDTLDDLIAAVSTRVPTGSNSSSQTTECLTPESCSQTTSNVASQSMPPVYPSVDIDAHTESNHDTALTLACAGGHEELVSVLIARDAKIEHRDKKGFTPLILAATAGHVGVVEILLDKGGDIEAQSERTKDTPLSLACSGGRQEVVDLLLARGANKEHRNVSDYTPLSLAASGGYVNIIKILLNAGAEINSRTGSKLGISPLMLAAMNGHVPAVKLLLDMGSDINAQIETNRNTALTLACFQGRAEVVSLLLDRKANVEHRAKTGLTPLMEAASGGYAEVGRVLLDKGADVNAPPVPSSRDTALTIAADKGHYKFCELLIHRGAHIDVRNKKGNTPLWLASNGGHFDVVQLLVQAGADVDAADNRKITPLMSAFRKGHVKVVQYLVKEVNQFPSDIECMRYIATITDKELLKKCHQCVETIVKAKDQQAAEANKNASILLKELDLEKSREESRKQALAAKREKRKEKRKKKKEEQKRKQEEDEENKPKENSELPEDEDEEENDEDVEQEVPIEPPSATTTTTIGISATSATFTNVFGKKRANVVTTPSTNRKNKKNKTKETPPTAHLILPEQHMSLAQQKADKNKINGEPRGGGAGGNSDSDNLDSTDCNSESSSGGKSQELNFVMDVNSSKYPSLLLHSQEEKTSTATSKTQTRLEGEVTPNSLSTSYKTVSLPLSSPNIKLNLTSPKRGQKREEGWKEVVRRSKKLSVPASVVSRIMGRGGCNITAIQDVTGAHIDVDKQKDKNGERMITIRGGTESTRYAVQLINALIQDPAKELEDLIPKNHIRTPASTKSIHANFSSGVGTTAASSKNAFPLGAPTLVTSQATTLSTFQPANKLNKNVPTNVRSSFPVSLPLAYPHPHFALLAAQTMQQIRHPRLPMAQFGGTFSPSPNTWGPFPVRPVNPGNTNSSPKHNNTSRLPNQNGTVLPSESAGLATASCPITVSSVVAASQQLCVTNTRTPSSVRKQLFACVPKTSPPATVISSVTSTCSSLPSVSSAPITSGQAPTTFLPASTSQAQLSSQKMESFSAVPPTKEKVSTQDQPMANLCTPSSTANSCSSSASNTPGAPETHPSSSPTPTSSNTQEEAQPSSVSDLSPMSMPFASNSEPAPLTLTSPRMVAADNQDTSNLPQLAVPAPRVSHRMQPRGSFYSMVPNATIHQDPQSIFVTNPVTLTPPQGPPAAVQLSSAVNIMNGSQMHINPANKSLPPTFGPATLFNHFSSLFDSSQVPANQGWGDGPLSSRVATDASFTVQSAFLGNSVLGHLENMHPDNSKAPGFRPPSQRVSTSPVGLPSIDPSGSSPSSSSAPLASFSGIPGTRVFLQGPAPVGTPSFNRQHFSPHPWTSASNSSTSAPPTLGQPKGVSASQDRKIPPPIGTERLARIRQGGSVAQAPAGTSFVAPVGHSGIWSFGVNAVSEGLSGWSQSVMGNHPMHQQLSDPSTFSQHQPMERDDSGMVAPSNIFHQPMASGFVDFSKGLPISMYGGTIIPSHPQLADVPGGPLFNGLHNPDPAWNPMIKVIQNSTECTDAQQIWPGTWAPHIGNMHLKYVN
UniProt Q07021, residues 74-282: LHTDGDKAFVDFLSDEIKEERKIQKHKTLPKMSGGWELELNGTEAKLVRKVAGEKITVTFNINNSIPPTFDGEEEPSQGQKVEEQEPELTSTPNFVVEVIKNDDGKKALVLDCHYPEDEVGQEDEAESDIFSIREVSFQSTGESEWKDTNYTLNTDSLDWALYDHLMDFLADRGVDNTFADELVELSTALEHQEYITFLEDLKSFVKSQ
UniProt Q13185: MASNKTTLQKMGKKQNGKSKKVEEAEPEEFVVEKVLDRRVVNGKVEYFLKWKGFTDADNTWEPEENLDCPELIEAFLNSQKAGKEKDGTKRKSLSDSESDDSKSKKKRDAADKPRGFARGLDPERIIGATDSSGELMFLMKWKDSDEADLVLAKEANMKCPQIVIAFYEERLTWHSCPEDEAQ
UniProt P53618: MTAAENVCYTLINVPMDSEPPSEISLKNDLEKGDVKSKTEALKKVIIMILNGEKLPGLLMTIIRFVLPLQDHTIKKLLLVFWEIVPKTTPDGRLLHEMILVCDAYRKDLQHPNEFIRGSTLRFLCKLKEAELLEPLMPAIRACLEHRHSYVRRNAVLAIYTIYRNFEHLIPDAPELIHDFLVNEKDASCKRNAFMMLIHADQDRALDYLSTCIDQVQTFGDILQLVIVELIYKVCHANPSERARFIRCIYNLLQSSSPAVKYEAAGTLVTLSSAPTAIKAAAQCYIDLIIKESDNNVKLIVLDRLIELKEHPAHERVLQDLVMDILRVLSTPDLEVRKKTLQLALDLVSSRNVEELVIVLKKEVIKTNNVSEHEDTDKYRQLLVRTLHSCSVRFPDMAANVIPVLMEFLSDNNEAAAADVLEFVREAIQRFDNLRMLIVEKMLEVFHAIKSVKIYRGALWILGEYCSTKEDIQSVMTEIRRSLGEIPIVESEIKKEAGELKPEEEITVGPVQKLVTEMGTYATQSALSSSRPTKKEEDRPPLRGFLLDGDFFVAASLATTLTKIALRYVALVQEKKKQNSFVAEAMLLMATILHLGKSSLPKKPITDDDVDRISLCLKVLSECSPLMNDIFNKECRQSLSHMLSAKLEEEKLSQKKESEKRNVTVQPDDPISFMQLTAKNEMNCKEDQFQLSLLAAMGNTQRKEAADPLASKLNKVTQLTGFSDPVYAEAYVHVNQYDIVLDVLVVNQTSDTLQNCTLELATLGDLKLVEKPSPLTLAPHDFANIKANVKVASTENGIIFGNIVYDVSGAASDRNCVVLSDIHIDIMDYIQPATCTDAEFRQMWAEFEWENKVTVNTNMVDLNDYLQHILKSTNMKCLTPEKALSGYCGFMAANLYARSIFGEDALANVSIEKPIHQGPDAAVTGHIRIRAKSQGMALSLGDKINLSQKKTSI
UniProt P61923: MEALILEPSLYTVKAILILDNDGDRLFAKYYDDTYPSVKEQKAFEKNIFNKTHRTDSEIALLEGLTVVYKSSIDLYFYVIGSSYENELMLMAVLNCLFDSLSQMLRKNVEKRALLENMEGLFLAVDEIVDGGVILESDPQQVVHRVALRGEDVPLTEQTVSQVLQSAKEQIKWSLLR
UniProt P06748: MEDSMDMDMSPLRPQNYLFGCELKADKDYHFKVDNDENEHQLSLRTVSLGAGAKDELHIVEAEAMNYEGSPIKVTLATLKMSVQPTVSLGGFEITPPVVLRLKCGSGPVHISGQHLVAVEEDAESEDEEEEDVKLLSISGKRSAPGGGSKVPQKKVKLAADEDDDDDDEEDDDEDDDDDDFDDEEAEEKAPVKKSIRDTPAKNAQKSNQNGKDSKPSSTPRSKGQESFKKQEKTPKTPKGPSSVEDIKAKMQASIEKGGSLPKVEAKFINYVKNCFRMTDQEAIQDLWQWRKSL
UniProt Q9Y265: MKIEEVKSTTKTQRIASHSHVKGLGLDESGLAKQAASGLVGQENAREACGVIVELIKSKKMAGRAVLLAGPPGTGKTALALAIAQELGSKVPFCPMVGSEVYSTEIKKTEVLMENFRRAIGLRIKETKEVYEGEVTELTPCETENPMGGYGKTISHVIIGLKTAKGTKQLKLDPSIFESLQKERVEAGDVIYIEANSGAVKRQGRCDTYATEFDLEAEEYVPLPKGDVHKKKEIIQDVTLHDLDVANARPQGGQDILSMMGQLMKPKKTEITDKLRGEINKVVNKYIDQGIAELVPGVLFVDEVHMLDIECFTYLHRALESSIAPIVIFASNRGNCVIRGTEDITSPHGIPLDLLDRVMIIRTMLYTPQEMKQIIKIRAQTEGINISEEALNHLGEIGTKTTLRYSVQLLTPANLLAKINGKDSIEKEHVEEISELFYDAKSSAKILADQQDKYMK

In publication PMC8483321:

Assays:
[1] = molecular target: (N)GFP-FLAG-BAP1 fusion protein (BRCA1-associated protein 1, full-length) (UniProt Q92560); experiment: affinity purification with mass spectrometry; GFP-Trap agarose beads, 20 min at 4°C with ethidium bromide, washes in C300 buffer; nuclear extracts of HeLa FRT ΔBAP1 (clone 4D2) lines expressing GFP-BAP1 full-length, 2–670 or Δ671–710; GFP or mock immunoprecipitation
[2] = molecular target: (N)GFP-FLAG-BAP1 fusion protein (BRCA1-associated protein 1, full-length) (UniProt Q92560); experiment: affinity purification with mass spectrometry; GFP-Trap agarose beads, 20 min at 4°C with ethidium bromide, washes in C300 buffer; cytoplasmic extracts of HeLa FRT ΔBAP1 (clone 4D2) lines expressing GFP-BAP1 full-length, 2–670 or Δ671–710; GFP or mock immunoprecipitation
GFP-BAP1 2–670 [3] = molecular target: GFP-BAP1 2–670 (UniProt Q92560); experiment: affinity purification with mass spectrometry; GFP-Trap agarose beads, 20 min at 4°C with ethidium bromide, washes in C300 buffer; nuclear extracts of HeLa FRT ΔBAP1 (clone 4D2) lines expressing GFP-BAP1 full-length, 2–670 or Δ671–710; GFP or mock immunoprecipitation
GFP-BAP1 Δ671–710 [4] = molecular target: GFP-BAP1 Δ671–710 (UniProt Q92560); experiment: as above
GFP-BAP1 2–670 [5] = molecular target: GFP-BAP1 2–670 (UniProt Q92560); experiment: affinity purification with mass spectrometry; GFP-Trap agarose beads, 20 min at 4°C with ethidium bromide, washes in C300 buffer; cytoplasmic extracts of HeLa FRT ΔBAP1 (clone 4D2) lines expressing GFP-BAP1 full-length, 2–670 or Δ671–710; GFP or mock immunoprecipitation
GFP-BAP1 Δ671–710 [6] = molecular target: GFP-BAP1 Δ671–710 (UniProt Q92560); experiment: as above
[7] = molecular target: (N)GFP-FLAG-BAP1 fusion protein (BRCA1-associated protein 1, full-length) (UniProt Q92560); experiment: affinity purification with mass spectrometry; GFP-Trap agarose beads, 20 min at 4°C with ethidium bromide, washes in C300 buffer; nuclear extracts of HeLa FRT ΔBAP1 (clone 4D2) lines expressing GFP-BAP1 full-length, 2–670 or Δ671–710; GFP or mock immunoprecipitation; remark: listed apart in the source
[8] = molecular target: (N)GFP-FLAG-BAP1 fusion protein (BRCA1-associated protein 1, full-length) (UniProt Q92560); experiment: affinity purification with mass spectrometry; GFP-Trap agarose beads, 20 min at 4°C with ethidium bromide, washes in C300 buffer; nuclear extract of HeLa FRT cells (endogenous BAP1 present) induced with doxycycline to express GFP-BAP1; against mock precipitation
GFP-BAP1 Δ671–710 [9] = molecular target: GFP-BAP1 Δ671–710 (UniProt Q92560); experiment: affinity purification with mass spectrometry; GFP-Trap agarose beads, 20 min at 4°C with ethidium bromide, washes in C300 buffer; nuclear extracts of HeLa FRT ΔBAP1 (clone 4D2) lines expressing GFP-BAP1 full-length, 2–670 or Δ671–710; GFP or mock immunoprecipitation; remark: listed apart in the source

| Molecule | binding [1] | binding [2] | further results |
| --- | --- | --- | --- |
| ANKHD1 (from UniProt Q8IWZ3 1-2542) | no binding (only in the nuclear extract) | binds | – |
| ANKRD17 (from UniProt O75179 1-2603) | no binding (only in the nuclear extract) | binds | – |
| C1QBP (from UniProt Q07021 74-282) | no binding (only in the nuclear extract) | binds | – |
| CBX3 (from UniProt Q13185 1-183) | no binding (only in the nuclear extract) | binds | binding (GFP-BAP1 2–670 [3]): no binding (only in the nuclear extract); binding (GFP-BAP1 Δ671–710 [4]): binds; binding (GFP-BAP1 2–670 [5]): binds; binding (GFP-BAP1 Δ671–710 [6]): binds |
| COPB1 (from UniProt P53618 1-953) | no binding (only in the nuclear extract) | binds | – |
| COPG1 (from UniProt Q9Y678 1-874) | no binding (only in the nuclear extract) | binds | – |
| COPZ1 (from UniProt P61923 1-177) | no binding (only in the nuclear extract) | binds | – |
| HUWE1 (from UniProt Q7Z6Z7 1-4374) (enzyme) | no binding (only in the nuclear extract) | binds | – |
| KPNB1 (from UniProt Q14974 1-876) | no binding (only in the nuclear extract) | binds | – |
| NPM1 (from UniProt P06748 1-294) | no binding (only in the nuclear extract) | binds | – |
| RUVBL1 (from UniProt Q9Y265 1-456) | no binding (only in the nuclear extract) | binds | binding (GFP-BAP1 2–670 [3]): no binding (only in the nuclear extract); binding (GFP-BAP1 Δ671–710 [4]): no binding (only in the nuclear extract); binding (GFP-BAP1 2–670 [5]): binds; binding (GFP-BAP1 Δ671–710 [6]): binds |
| TNPO1 (from UniProt Q92973 1-898) | no binding (only in the nuclear extract) | binds | – |
| VCP (from UniProt P55072 1-806) | no binding (only in the nuclear extract) | binds | – |
| HCFC2 (protein, UniProt Q9Y5Z7 1-792) MAAPSLLNWRRVSSFTGPVPRARHGHRAVAIRELMIIFGGGNEGIADELHVYNTATNQWFLPAVRGDIPPGCAAHGFVCDGTRILVFGGMVEYGRYSNELYELQASRWLWKKVKPHPPPSGLPPCPRLGHSFSLYGNKCYLFGGLANESEDSNNNVPRYLNDFYELELQHGSGVVGWSIPVTKGVVPSPRESHTAVIYCKKDSGSPKMYVFGGMCGARLDDLWQLDLETMSWSKPETKGTVPLPRSLHTASVIGNKMYIFGGWVPHKGENTETSPHDCEWRCTSSFSYLNLDTTEWTTLVSDSQEDKKNSRPRPRAGHCAVAIGTRLYFWSGRDGYKKALNSQVCCKDLWYLDTEKPPAPSQVQLIKATTNSFHVKWDEVSTVEGYLLQLSTDLPYQAASSDSSAAPNMQGVRMDPHRQGSNNIVPNSINDTINSTKTEQPATKETSMKNKPDFKALTDSNAILYPSLASNASNHNSHVVDMLRKNEGPHTSANVGVLSSCLDVRTVIPETSVSSTVSSTQTMVTQQTIKTESSSTNGAVVKDETSLTTFSTKSEVDETYALPATKISRVETHATATPFSKETPSNPVATVKAGERQWCDVGIFKNNTALVSQFYLLPKGKQSISKVGNADVPDYSLLKKQDLVPGTGYRFRVAAINGCGIGPFSKISEFKTCIPGFPGAPSAVRISKNVEGIHLSWEPPTSPSGNILEYSAYLAIRTAQIQDNPSQLVFMRIYCGLKTSCIVTAGQLANAHIDYTSRPAIVFRISAKNEKGYGPATQVRWLQGNNKKAPLN | – | binds | binding [7]: binds; binding (GFP-BAP1 2–670 [5]): binds |
| COPB2 (protein, UniProt P35606 1-906) MPLRLDIKRKLTARSDRVKSVDLHPTEPWMLASLYNGSVCVWNHETQTLVKTFEVCDLPVRAAKFVARKNWVVTGADDMQIRVFNYNTLERVHMFEAHSDYIRCIAVHPTQPFILTSSDDMLIKLWDWDKKWSCSQVFEGHTHYVMQIVINPKDNNQFASASLDRTIKVWQLGSSSPNFTLEGHEKGVNCIDYYSGGDKPYLISGADDRLVKIWDYQNKTCVQTLEGHAQNVSCASFHPELPIIITGSEDGTVRIWHSSTYRLESTLNYGMERVWCVASLRGSNNVALGYDEGSIIVKLGREEPAMSMDANGKIIWAKHSEVQQANLKAMGDAEIKDGERLPLAVKDMGSCEIYPQTIQHNPNGRFVVVCGDGEYIIYTAMALRNKSFGSAQEFAWAHDSSEYAIRESNSIVKIFKNFKEKKSFKPDFGAESIYGGFLLGVRSVNGLAFYDWDNTELIRRIEIQPKHIFWSDSGELVCIATEESFFILKYLSEKVLAAQETHEGVTEDGIEDAFEVLGEIQEIVKTGLWVGDCFIYTSSVNRLNYYVGGEIVTIAHLDRTMYLLGYIPKDNRLYLGDKELNIISYSLLVSVLEYQTAVMRRDFSMADKVLPTIPKEQRTRVAHFLEKQGFKQQALTVSTDPEHRFELALQLGELKIAYQLAVEAESEQKWKQLAELAISKCQFGLAQECLHHAQDYGGLLLLATASGNANMVNKLAEGAERDGKNNVAFMSYFLQGKVDACLELLIRTGRLPEAAFLARTYLPSQVSRVVKLWRENLSKVNQKAAESLADPTEYENLFPGLKEAFVVEEWVKETHADLWPAKQYPLVTPNEERNVMEEGKDFQPSRSTAQQELDGKPASPTPVIVASHTANKEEKSLLELEVDLDNLELEDIDTTDINLDEDILDD | – | binds | binding [8]: no binding (only in the nuclear extract); binding [7]: no binding (only in the nuclear extract); binding (GFP-BAP1 Δ671–710 [9]): no binding (only in the nuclear extract); binding (GFP-BAP1 Δ671–710 [6]): binds |
| ARCN1 (protein, UniProt P48444 1-511) MVLLAAAVCTKAGKAIVSRQFVEMTRTRIEGLLAAFPKLMNTGKQHTFVETESVRYVYQPMEKLYMVLITTKNSNILEDLETLRLFSRVIPEYCRALEENEISEHCFDLIFAFDEIVALGYRENVNLAQIRTFTEMDSHEEKVFRAVRETQEREAKAEMRRKAKELQQARRDAERQGKKAPGFGGFGSSAVSGGSTAAMITETIIETDKPKVAPAPARPSGPSKALKLGAKGKEVDNFVDKLKSEGETIMSSSMGKRTSEATKMHAPPINMESVHMKIEEKITLTCGRDGGLQNMELHGMIMLRISDDKYGRIRLHVENEDKKGVQLQTHPNVDKKLFTAESLIGLKNPEKSFPVNSDVGVLKWRLQTTEESFIPLTINCWPSESGNGCDVNIEYELQEDNLELNDVVITIPLPSGVGAPVIGEIDGEYRHDSRRNTLEWCLPVIDAKNKSGSLEFSIAGQPNDFFPVQVSFVSKKNYCNIQVTKVTQVDGNSPVRFSTETTFLVDKYEIL | – | binds | binding [8]: no binding (only in the nuclear extract); binding [7]: no binding (only in the nuclear extract) |
| NAP1L5 (protein, UniProt Q96NT1 1-182) MADSENQGPAEPSQAAAAAEAAAEEVMAEGGAQGGDCDSAAGDPDSAAGQMAEEPQTPAENAPKPKNDFIESLPNSVKCRVLALKKLQKRCDKIEAKFDKEFQALEKKYNDIYKPLLAKIQELTGEMEGCAWTLEGEEEEEEEYEDDEEEGEDEEEEEAAAEAAAGAKHDDAHAEMPDDAKK | – | binds | binding [7]: no binding (only in the nuclear extract) |

These are yes or no findings as the source states them, for the method shown. Binding seen in cells or lysates may run through a third protein. Here binding means that the protein was enriched with, or labelled near, the bait; the list need not be complete. For some assays here: No binding means not detected with the bait.
